# Assay results from the supplement of paper PMC7024190.
# Counter-ions that a name gives are not always drawn. Some of the results follow. Single values are uncertain here, since repeats match poorly.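 The cells were human embryonic kidney cells carrying a Renilla luciferase gene, driven by the HSV-TK promoter, on a plasmid put in briefly by transfection. This is the first-round screen of about ten thousand compounds, looking for ones that raise reporter output.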
# Tested on: HEK 293FT
# Assay: log relative Renilla luciferase luminescence (reporter expression vs reference, reference not stated) (log (base not stated)); higher = higher recombinant reporter expression
# Conditions: 10 µM; time after transfection 48 h
row,Structure (SMILES),log
1,Nc1ccc(S(=O)(=O)c2ccc(N)cc2)cc1 [Dapsone],0.178
2,N=C(N)NCC1COC2(CCCCC2)O1 (stereo not given) [Guanadrel sulfate],-0.0734
3,CC1(C)OC(=O)NC1=O [Dimethadione],-0.167
4,Nc1ccc(C(=O)NCC(=O)O)cc1 [Aminohippuric acid],-0.0105
5,COc1ccc(NS(=O)(=O)c2ccc(N)cc2)nn1 [Sulfamethoxypyridazine],-0.146
6,CCC[C@H](N[C@@H](C)C(=O)N1[C@H](C(=O)O)C[C@@H]2CCCC[C@@H]21)C(=O)OCC [Perindopril],0.0346
7,Cn1nnnc1SCC1=C(C(=O)O)N2C(=O)[C@@H](NC(=O)[C@H](O)c3ccccc3)[C@H]2SC1 [Cefamandole sodium salt],-0.0818
8,O=C(CCCN1CC=C(n2c(=O)[nH]c3ccccc32)CC1)c1ccc(F)cc1 [Droperidol],-0.00861
9,CCN(CC)CCNC(=O)c1cc(S(C)(=O)=O)ccc1OC [Tiapride hydrochloride],0.105
10,C#CCN(C)Cc1ccccc1 [Pargyline hydrochloride],0.0407
11,CCn1cc(C(=O)O)c(=O)c2ccc(C)nc21 [Nalidixic acid sodium salt],0.139
12,COc1ccc2cc(CCC(C)=O)ccc2c1 [Nabumetone],0.117
13,CC(=O)N[C@@H](CC(=O)N[C@@H](CCC(=O)O)C(=O)O)C(=O)O [Spaglumic acid],0.113
14,Cc1ccc(S(=O)(=O)NC(=O)NN2CC3CCCC3C2)cc1 (stereo not given) [Gliclazide],0.145
15,CCn1cc(C(=O)O)c(=O)c2cnc(N3CCNCC3)nc21 [Pipemidic acid],0.0695
16,COc1cc2nc(N3CCN(C(=O)c4ccco4)CC3)nc(N)c2cc1OC [Prazosin hydrochloride],0.0221
17,COc1nc(C)nc(Cl)c1NC1=NCCN1 [Moxonidine],-0.0785
18,COc1ccc2[nH]cc(CCNC(C)=O)c2c1 [Melatonin],0.0484
19,NC[C@H]1O[C@H](O[C@H]2[C@H](O[C@@H]3O[C@H](CO)[C@@H](O)[C@H]3O)[C@@H](O)[C@H](N)C[C@@H]2N)[C@H](N)[C@@H](O)[C@@H]1O [Ribostamycin sulfate salt],-0.181
20,COc1ccc(C(=O)NCc2cccnc2)cc1C(=O)NCc1cccnc1 [Picotamide monohydrate],0.00465
21,CCN(Cc1ccncc1)C(=O)C(CO)c1ccccc1 (stereo not given) [Tropicamide],0.0655
22,CN(C)CCOC1=Cc2ccccc2Sc2ccc(Cl)cc21 [Zotepine],-0.54
23,O=C(NCCNCC(O)COc1ccc(O)cc1)N1CCOCC1 (stereo not given) [Xamoterol hemifumarate],0.086
24,OC(CCN1CCCCC1)(c1ccccc1)C1CC2C=CC1C2 (stereo not given) [Biperiden hydrochloride],-0.0359
25,Cc1ncc([N+](=O)[O-])n1CCO [Metronidazole],-0.443

# Looked up above:
# log with CCN(Cc1ccncc1)C(=O)C(CO)c1ccccc1 (stereo not given) [Tropicamide] is entered as 0.0655
# log with NC[C@H]1O[C@H](O[C@H]2[C@H](O[C@@H]3O[C@H](CO)[C@@H](O)[C@H]3O)[C@@H](O)[C@H](N)C[C@@H]2N)[C@H](N)[C@@H](O)[C@@H]1O [Ribostamycin sulfate salt] is entered as -0.181

# Continued:

row,Structure (SMILES),log
1,CCN(CC)CC#CCOC(=O)C(O)(c1ccccc1)C1CCCCC1 (stereo not given) [Oxybutynin chloride],0.0769
2,CN1C2CCCC1CC(NC(=O)c1nn(C)c3ccccc13)C2 (stereo not given) [Granisetron],0.02
3,CC(C)N1CCN(c2ccc(OCC3COC(Cn4cncn4)(c4ccc(Cl)cc4Cl)O3)cc2)CC1 (stereo not given) [Terconazole],0.02
4,Nc1nc(=S)c2ncn([C@@H]3O[C@H](CO)[C@@H](O)[C@H]3O)c2[nH]1 [Thioguanosine],0.0863
5,CC(C)NCC(O)COc1ccc(COCCOC(C)C)cc1 (stereo not given) [Bisoprolol fumarate],-0.403
6,CC(=O)N[C@@H](CC(C)C)C(=O)O [N-Acetyl-L-leucine],0.0842
7,Nc1nc(=O)c2nc(CNc3ccc(C(=O)N[C@@H](CCC(=O)O)C(=O)O)cc3)cnc2[nH]1 [Folic acid],-0.486
8,CC[C@H]1OC(=O)[C@H](C)[C@@H](O[C@H]2C[C@@](C)(OC)[C@@H](O)[C@H](C)O2)[C@H](C)[C@@H](O[C@@H]2O[C@H](C)C[C@H](N(C)C)[C@H]2O)[C@](C)(O)C[C@@H](C)/C(=N\OCOCCOC)[C@H](C)[C@@H](O)[C@]1(C)O [Roxithromycin],0.024
9,Nc1nc(F)nc2c1ncn2[C@@H]1O[C@H](CO)[C@@H](O)[C@@H]1O [Fludarabine],-0.0681
10,Clc1ccc(C(Cn2ccnc2)OCc2c(Cl)cccc2Cl)c(Cl)c1 (stereo not given) [Isoconazole],-0.00359
11,NC(=O)N1c2ccccc2C=Cc2ccccc21 [Carbamazepine],0.16
12,CN(C)CCN(Cc1cccs1)c1ccccn1 [Methapyrilene hydrochloride],-0.0838
13,COc1c(O[C@@H]2O[C@H](CO)[C@@H](O)[C@H](O)[C@H]2O)cc2c(c1OC)-c1ccc(SC)c(=O)cc1[C@@H](NC(C)=O)CC2 [Thiocolchicoside],0.0241
14,O=C(Cn1ccnc1[N+](=O)[O-])NCCO [Etanidazole],-0.0785
15,CO[C@H]1/C=C/O[C@@]2(C)Oc3c(C)c(O)c4c(c3C2=O)C2=NC3(CCN(CC(C)C)CC3)NC2=C(NC(=O)/C(C)=C\C=C\[C@H](C)[C@H](O)[C@@H](C)[C@@H](O)[C@@H](C)[C@H](OC(C)=O)[C@@H]1C)C4=O [Rifabutin],0.0422
16,Cc1scc2c1N(C(=O)CN1CCN(C)CC1)c1ccccc1NC2=O [Telenzepine dihydrochloride],-0.752
17,Cn1c(=O)c2nc[nH]c2n(C)c1=O [Theophylline monohydrate],0.0399
18,C=C1c2cccc(O)c2C(=O)C2=C(O)[C@]3(O)C(=O)C(C(N)=O)=C(O)[C@@H](N(C)C)[C@@H]3[C@@H](O)[C@H]12 [Methacycline hydrochloride],0.126
19,c1ccc(C2CN3CCSC3=N2)cc1 (stereo not given) [Tetramisole hydrochloride],0.0283
20,CCCN[C@H]1CCc2nc(N)sc2C1 [Pramipexole],0.0136
21,CCOC(=O)c1ccc(OC(=O)CCCCCNC(=N)N)cc1 [Gabexate mesilate],-0.0196
22,Cc1cc(=O)oc2cc(O)ccc12 [Hymecromone],-0.166
23,CC(COc1ccccc1)N(CCCl)Cc1ccccc1 (stereo not given) [Phenoxybenzamine hydrochloride],-0.0555
24,COc1ccc(CN(CCN(C)C)c2ccccn2)cc1 [Pyrilamine maleate],0.109
25,CCCNC(C)C(=O)Nc1ccccc1C (stereo not given) [Prilocaine hydrochloride],0.0466

row,Structure (SMILES),log
1,CCCCC[C@H](O)/C=C/[C@@H]1[C@@H](C/C=C\CCCC(=O)O)[C@@H](O)C[C@H]1O [Dinoprost trometamol],-0.058
2,CC(=O)c1ccc(S(=O)(=O)NC(=O)NC2CCCCC2)cc1 [Acetohexamide],0.205
3,CCOC(=O)OC(C)OC(=O)[C@@H]1N2C(=O)[C@@H](NC(=O)[C@H](N)c3ccccc3)[C@H]2SC1(C)C (stereo not given in full) [Bacampicillin hydrochloride],-0.0555
4,CCOC(=O)[C@H](CCc1ccccc1)N[C@H]1CCc2ccccc2N(CC(=O)O)C1=O [Benazepril HCl],-0.818
5,COC1=C(OC)C(=O)C(CCCCCCCCCCO)=C(C)C1=O [Idebenone],-0.015
6,NCCCC[C@H](N[C@@H](CCc1ccccc1)C(=O)O)C(=O)N1CCC[C@H]1C(=O)O [Lisinopril],-0.296
7,O=C(Nc1cccc2c(=O)cc(-c3nnn[nH]3)oc12)c1ccc(OCCCCc2ccccc2)cc1 [Pranlukast],-0.323
8,CC(C)(C)NC[C@H](O)COc1nsnc1N1CCOCC1 [Timolol maleate salt],-0.00154
9,Cc1nnc(NS(=O)(=O)c2ccc(N)cc2)s1 [Sulfamethizole],-0.121
10,CCN1CCC[C@H]1CNC(=O)c1c(OC)ccc(Br)c1OC [Remoxipride Hydrochloride],-0.0733
11,CC1CC(OC(=O)C(O)c2ccccc2)CC(C)(C)N1C (stereo not given) [Eucatropine hydrochloride],-0.0256
12,Cc1cnc(NC(=O)C2=C(O)c3ccccc3S(=O)(=O)N2C)s1 [Meloxicam],0.102
13,O=C(O)COC(=O)Cc1ccccc1Nc1c(Cl)cccc1Cl [Aceclofenac],0.0159
14,O=C(O)/C=C/c1ccc(Cn2ccnc2)cc1 [Ozagrel hydrochloride],-0.356
15,CCCc1nc(C)c2c(=O)nc(-c3cc(S(=O)(=O)N4CCN(CC)CC4)ccc3OCC)[nH]n12 [Vardenafil],0.0136
16,CCn1nc(C(=O)O)c(=O)c2cc3c(cc21)OCO3 [Cinoxacin],0.0575
17,Cc1cc(/C=C/c2ccc3cc(N(C)C)ccc3[n+]2C)c(C)n1-c1ccccc1 [Pyrvinium pamoate],-1.22
18,CCCCNc1ccc(C(=O)OCCOCCOCCOCCOCCOCCOCCOCCOCCOC)cc1 [Benzonatate],-0.0432
19,COCCOC(=O)C1=C(C)NC(C)=C(C(=O)OC/C=C/c2ccccc2)C1c1cccc([N+](=O)[O-])c1 (stereo not given) [Cilnidipine],-0.445
20,CCN1CCN(C(=O)N[C@@H](C(=O)N[C@@H]2C(=O)N3C(C(=O)O)=C(CSc4nnnn4C)CS[C@H]23)c2ccc(O)cc2)C(=O)C1=O [Cefoperazone dihydrate],-0.2
21,CN(C)CCOc1ccc(/C(=C(/CCCl)c2ccccc2)c2ccccc2)cc1 [Toremifene],0.0967
22,COC(=O)Nc1nc2ccc(SC(C)C)cc2[nH]1 [Methiazole],0.148
23,C=C1/C(=C\C=C2/CCC[C@]3(C)[C@@H]([C@H](C)/C=C/[C@@H](O)C4CC4)CC[C@@H]23)C[C@@H](O)C[C@@H]1O [Calcipotriene],0.0542
24,Cc1ccc(Cl)c(Nc2ccccc2C(=O)O)c1Cl [Meclofenamic acid sodium salt monohydrate],0.13
25,O=C(NCCO[N+](=O)[O-])c1cccnc1 [Nicorandil],0.0781

# 2 entries from above, as tab-separated lines:
row	Structure (SMILES)	log
12	COc1ccc2cc(CCC(C)=O)ccc2c1 [Nabumetone]	0.117
6	CC(=O)N[C@@H](CC(C)C)C(=O)O [N-Acetyl-L-leucine]	0.0842
